Measurements as given in PubChem BioAssay AID2685 (National Center for Advancing Translational Sciences (NCATS), 2010).
This is one part of the list. Further columns of the screen follow, without active or inactive calls. Compounds called inactive in the main read-out are mostly missing here. Potencies come from curve fits of mixed quality, noted in brackets.

Assay: qHTS Assay for Lipid Storage Modulators in Drosophila S3 Cells;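 as to cell number change: cells counted by Cell Tracker Red CMTPX staining in the red channel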
Conditions: BODIPY lipid droplet fluorescence, 18-24 h; for cell number change: measured here: cell count max response, cells fed with added oleic acid
Method in brief: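 Laser-scanning cytometry quantifies lipid droplet accumulation (500–530 nm total intensity; droplet/cell object ratio) in oleic acid-fed (400 uM added) Drosophila S3 cells treated with a concentration series. 20 uM Triacsin C defined 100% inhibition.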

[1] = measured here: lipid fluorescence (Fed channel) AC50, cells fed with added oleic acid
[2] = measured here: cell number channel AC50, cells fed with added oleic acid

For `C=C(C)CN(CC)C(=O)CN1C(=O)NC2(CCc3ccccc32)C1=O` (stereo not drawn), which cell number change is on record?
Its cell number change is -1.76%.

What about the AC50 [1] of the same compound?
The AC50 was 16.4 µM [falling, single point].

With `COc1ccc(NC(=O)c2nc(C)c(C3(C)CC(c4cccnc4)=NO3)s2)cc1` (stereo not drawn) as the compound, how does the cell number change read?
The cell number change was 12.2%.

What about the AC50 [1] of the same compound?
The AC50 was 3.26 µM [rising, partial curve].

With `COc1cccc(CN(C)C(=O)Cc2ccc(OC)c(S(=O)(=O)N3CCOCC3)c2)c1` as the compound, how does the cell number change read?
Its cell number change is 32.9%.

And the AC50 [2]?
The AC50 was 29.1 µM [rising, single point].

With `O=[N+]([O-])c1cc2oc3c(c2c(C=NCc2ccccc2)c1O)CCCC3` as the compound, how does the cell number change read?
The cell number change was 60.7%.

What about the AC50 [2] of the same compound?
The AC50 was 29.1 µM [rising, single point].

Which results are given for `O=C(NCCc1nc2ccccc2[nH]1)c1ccc(Cl)c([N+](=O)[O-])c1`?
cell number change: -2.88%; AC50 [1]: 29.1 µM [falling, single point]

Which results are given for `O=C(Nc1nnc(-c2ccc(Br)cc2)o1)c1ccco1`?
AC50 [2]: 6.51 µM [falling, single point]; AC50 [1]: 0.116 µM [falling, full curve]

With `COc1ccc(-c2nn3c(=O)c(C)nnc3s2)cc1` as the compound, how does the cell number change read?
The cell number change was 36.6%.

And the AC50 [2]?
Its AC50 is 4.61 µM [rising, full curve, poor fit].

Which cell number change does the source give for `COc1cc(Cl)c(C)cc1NC(=O)CSc1nnc(-c2ccccn2)n1Cc1ccco1` here?
The cell number change was -20.4%.

And the AC50 [1]?
The AC50 was 1.16 µM [rising, full curve, poor fit].

With `CCOc1c(C)cnc2c1c(=O)n(Cc1ccccc1F)c(=O)n2C` as the compound, how does the cell number change read?
Its cell number change is -16.1%.

Which results are given for `N#CCCN(CCC#N)C(=O)C1c2ccccc2Oc2ccccc21`?
cell number change: 10.9%; AC50 [1]: 8.2 µM [rising, partial curve]

What does the source list for `CCN(Cc1ccccc1)C(=O)Cn1c(=O)n(CC(=O)NCc2ccco2)c(=O)c2sccc21`?
cell number change: -9.19%; AC50 [1]: 6.51 µM [falling, single point]

What does the source list for `Cc1ccc(NC(=O)c2ccc3c(c2)N(CC(=O)N2CCCCC2)C(=O)C(C)(C)O3)cc1`?
cell number change: 4.71%; AC50 [1]: 2.91 µM [rising, partial curve]

For `O=C(Cc1ccc(F)cc1)Nc1nc(-c2ccc(F)c(F)c2)cs1`, which cell number change is on record?
The cell number change was 14.7%.

What about the AC50 [2] of the same compound?
Its AC50 is 0.00651 µM [rising, full curve, poor fit].

What about the AC50 [1] of the same compound?
The AC50 was 29.1 µM [falling, single point].

For `CC(=O)c1ccc(N2C(=O)[C@@H]3C(CCC(N)=O)NC4(C(=O)Nc5c4ccc(Cl)c5C)[C@@H]3C2=O)cc1` (stereo partly drawn), which cell number change is on record?
Its cell number change is 31.5%.

And the AC50 [2]?
Its AC50 is 5.8 µM [rising, full curve, poor fit].

Which cell number change does the source give for `COc1ccc(NC(=O)C/C(C)=N/NC(=O)c2ccccn2)c(OC)c1` here?
The cell number change was 10.7%.

And the AC50 [1]?
Its AC50 is 6.51 µM [falling, single point].

With `COc1cc(NC(C(=O)Nc2cccc(C(C)=O)c2)c2ccccc2)cc(OC)c1OC` (stereo not drawn) as the compound, how does the cell number change read?
Its cell number change is 16.7%.

And the AC50 [1]?
Its AC50 is 18.4 µM [rising, partial curve, poor fit].

Which cell number change does the source give for `CCOc1ccc(-c2nnc(SCC(=O)N3CCCC3)o2)cc1` here?
Its cell number change is 8.73%.

What about the AC50 [2] of the same compound?
The AC50 was 0.92 µM [rising, full curve, poor fit].

With `CN1c2ccsc2/C(=N/Nc2ccccc2)CS1(=O)=O` as the compound, how does the cell number change read?
Its cell number change is -31.4%.

And the AC50 [2]?
The AC50 was 18.4 µM [falling, single point].

For `CCOc1cc(CNc2ccc3c(c2)CCC3)ccc1O`, which cell number change is on record?
Its cell number change is 35.3%.

And the AC50 [2]?
Its AC50 is 29.1 µM [rising, single point].

For `COc1cc(C(=O)OCC(=O)Nc2c(F)cccc2F)cc(OC)c1C`, which cell number change is on record?
The cell number change was 24.6%.

Which AC50 [1] does the source give for `Cc1cc(C)c(OCC(=O)OCC(=O)NCC2CCCCC2)c(C)c1` here?
The AC50 was 25.9 µM [rising, single point].

With `CN(Cc1ccccc1)C(=O)c1cc(=O)[nH]c2ccccc12` as the compound, how does the cell number change read?
Its cell number change is 4.67%.

For `CN(C)N1C(N)=C(C#N)C(c2ccc(F)cc2)C2=C1CCCC2=O` (stereo not drawn), which cell number change is on record?
The cell number change was 23.6%.

Which results are given for `CCOc1ccccc1C(=O)NCc1ccco1`?
cell number change: 5.51%; AC50 [1]: 7.31 µM [rising, partial curve, poor fit]

For `CC(C)c1nc(CNC(=O)C2CCC(=O)N(CCc3ccc(Cl)cc3)C2)no1` (stereo not drawn), which cell number change is on record?
The cell number change was -12.9%.

And the AC50 [2]?
Its AC50 is 0.291 µM [rising, full curve, poor fit].

What about the AC50 [1] of the same compound?
Its AC50 is 29.1 µM [rising, single point].

Which cell number change does the source give for `Cc1ccc(C(=O)Nc2sc(C)c(-c3ccccc3)c2C(N)=O)cc1[N+](=O)[O-]` here?
Its cell number change is -0.521%.

With `CCOc1ccc(N2CC(C(=O)NCCc3ccc(F)cc3)CC2=O)cc1` (stereo not drawn) as the compound, how does the cell number change read?
Its cell number change is 10.4%.

What does the source list for `O=C(NCCN1C(=O)S/C(=C\c2cccs2)C1=O)c1ccc(=O)[nH]c1`?
cell number change: -33.3%; AC50 [2]: 8.2 µM [falling, partial curve, poor fit]

What does the source list for `CCOc1ccccc1NC(=O)C1Cc2ccccc2CN1S(C)(=O)=O` (stereo not drawn)?
cell number change: 44.4%; AC50 [2]: 20.6 µM [rising, single point]; AC50 [1]: 20.6 µM [rising, single point]

Which cell number change does the source give for `COc1ccccc1CNC(=O)CCn1c(=O)oc2ccccc21` here?
The cell number change was -55%.

And the AC50 [1]?
Its AC50 is 0.00517 µM [falling, full curve].

Which cell number change does the source give for `COC(=O)C1C(c2ccc(Cl)cc2)NC(c2ccc(Cl)cc2)C(C(=O)OC)S1(=O)=O` (stereo not drawn) here?
The cell number change was 171%.

What about the AC50 [2] of the same compound?
Its AC50 is 23.1 µM [rising, single point].

Which cell number change does the source give for `O=C(N/N=C/c1ccc(Cl)cc1Cl)c1ccc2nc[nH]c2c1` here?
The cell number change was 25.1%.

What about the AC50 [1] of the same compound?
The AC50 was 0.231 µM [rising, full curve, poor fit].

What does the source list for `O=C(Nc1ccncc1)Nc1cccc(Cl)c1`?
cell number change: -43.1%; AC50 [2]: 20.6 µM [falling, single point]; AC50 [1]: 29.1 µM [rising, single point]

Which cell number change does the source give for `O=C(c1cccc(N2CCCC2=O)c1)N1CCN(c2ccc(F)cc2)CC1` here?
Its cell number change is -22.1%.

With `CCN(CC)c1ccc(/C=N/N2CCN(Cc3ccccc3)CC2)cc1` as the compound, how does the cell number change read?
The cell number change was -61.4%.

What about the AC50 [2] of the same compound?
Its AC50 is 29.1 µM [falling, single point].

What about the AC50 [1] of the same compound?
Its AC50 is 16.4 µM [falling, single point].

Which AC50 [2] does the source give for `Cc1ccc(C2C(C#N)=C(N)N(c3cccnc3)C3=C2C(=O)CCC3)c(C)c1` (stereo not drawn) here?
The AC50 was 0.58 µM [rising, single point].

With `COc1ccc(NC(C)=O)cc1S(=O)(=O)N1CCn2cccc2C1C` (stereo not drawn) as the compound, how does the cell number change read?
Its cell number change is -3.63%.

And the AC50 [1]?
Its AC50 is 13 µM [rising, partial curve, poor fit].

For `CCc1ccccc1NC(=O)CNCC(=O)Nc1ccccc1CC`, which cell number change is on record?
Its cell number change is -27%.

And the AC50 [1]?
The AC50 was 16.4 µM [falling, single point].

With `COc1ccc(NC(=O)CN2CCN(CC(=O)Nc3ccc(F)cc3)CC2)c(OC)c1` as the compound, how does the AC50 [1] read?
The AC50 was 29.1 µM [falling, single point].
